Results reported in US20010018511A1.
These are yes or no findings as the source states them, for the method shown. Some binding calls cover weakened binding; strength is not graded here.

Tests used:
[1] = molecular target: MBP-hdm2 (clone 4, MBP-MVRSRQ-M1...N221) (human) (UniProt Q00987); experiment: single clone phage ELISA on coated antigen
[2] = molecular target: MBP-hdm2 (clone 4, MBP-MVRSRQ-M1...N221) (human) (UniProt Q00987); experiment: phage ELISA, phage and fusion protein in solution, capture by anti-mdm2 antibodies
[3] = molecular target: TRX-hdm2 (thioredoxin-hdm2 fusion) (human) (UniProt Q00987); experiment: as above

Row | Binder | binding [1] | binding [2] | binding [3]
1 | MPRFMDYWEGLN (peptide, not shown: large carriers) [phage clone 12/1] | binds | – | –
2 | VQNFIDYWTQQF (peptide, not shown: large carriers) [phage clone 12/2] | binds | – | –
3 | TGPAFTHYWATF (peptide, not shown: large carriers) [phage clone 12/5] | binds | – | –
4 | IDRAPTFRDHWFALV (peptide, not shown: large carriers) [phage clone 15/1] | binds | – | –
5 | PRPALVFADYWETLY (peptide, not shown: large carriers) [phage clone 15/5] | binds | – | –
6 | PAFSRFWSDLSAGAH (peptide, not shown: large carriers) [phage clone BB3] | binds | binds | binds
